At least one structure is not confirmed: it was looked up by name or label, or the drawing left a doubt.
How the values were obtained:
[1] = test system: ERK2 phosphorylation; experiment: Western blot analysis of ERK2 phosphorylation in striatum after i.p. MEK1 inhibitor; assay type: in vivo; conditions: mutant Drd1a-cre; miR-128-2fl/fl mice; 12 mg/kg i.p.; 30 min after injection
[2] = test system: Drd1a-cre; miR-128-2fl/fl and littermate control mice; experiment: Open-field motor activity after i.p. MEK1 inhibitor; assay type: in vivo; conditions: 12 mg/kg i.p.

## N#C/C(=C(/N)Sc1ccc(N)cc1)c1ccccc1C(F)(F)F [SL327]
[1]
  ERK2 phosphorylation: normalize
[2]; mutant Drd1a-cre, miR-128-2fl/fl mice
  motor activity: normalize
[2]; wild type mice
  motor activity: does not affect
